Primary screen of a compound library

Each number is a percent effect as filed.
How 0% and 100% were set is not recorded. Most values in the screen are low, and negative values occur.
This is an unselected part of the compounds tested.
Two or more numbers in one place are separate tests of the same structure; such repeats can differ widely.

Mtb cholesterol medium: 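Phenotypic screen: M. tuberculosis growth, cholesterol and DPPC medium, 4 days; the read-out is not stated. Tested at 50 µM. Higher reads as more growth inhibition (inferred: compounds with an IC50 in retests scored well above the rest). Of about 69,000 compounds tested this way, about 370 (0.54%) reached 50% or more in at least one test.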
Mtb glucose medium: 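Growth of Mycobacterium tuberculosis over 3 days (7H9 medium with glucose and tyloxapol); the read-out is not stated. Concentration: 50 µM. Direction is inferred from retests: higher values go with more growth inhibition. Size under these conditions: about 69,000 compounds, about 760 of them at 50% or above in at least one test.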

Compound	Mtb cholesterol medium	Mtb glucose medium
O=C1CC(NCc2cnc(C3CCCCC3)nc2)CN1c1ccccc1 (centres unmarked)	-31%	-13.72%
CC(C)(C)c1cc(C(=O)N2CCOC(c3cnccn3)C2)[nH]n1 (centres unmarked)	2.356% & 2.78%	-34.05%
Cn1ncc2c(NCC3CCS(=O)(=O)C3)nc(-c3ccncc3)nc21 (centres unmarked)	-37.99% & -16.9%	-70.73%
COc1ncccc1CNC(=O)c1cc(F)cc(Br)c1	2.371%	7.164%
CC1CN(C(=O)c2ccc(=O)n(C)c2)c2ccccc2NC1=O (centres unmarked)	7.259%	-22.73%
CN(Cc1ccncn1)C(=O)CCC(=O)NC1CCCC1	17.84%	-3.414%
CC(C)N1CC(c2ncc(-c3ccc4c(c3)OCCO4)[nH]2)CC1=O (centres unmarked)	9.158%	-0.8268%
CSc1c[nH]nc1NS(=O)(=O)c1cc(F)ccc1Cl	-8.735%	25.04%
[H][C@]12C[C@@H](Cn3cncn3)N(C(C)=O)[C@@]1([H])CCN(c1ccc(C)nn1)C2	-10.68%	20.35%
CCOc1ccccc1OC1CCN(C(=O)c2nc(=O)[nH][nH]2)CC1	0.4768%	-0.7173%
Cc1cc(C(=O)N2CCCC2c2c(C)nn(C)c2C)no1 (centres unmarked)	-24.1%	-15.3%
[H][C@]12CC(Cn3cccn3)N(C)[C@@]1([H])CCN(Cc1nccs1)C2 (some centres unmarked)	-2.551%	7.679%
CN(Cc1ccco1)C(=O)C1=NN(C)C(=O)CC1	20.48%	12.15%
Cc1cc(N2CCOCC2)ccc1NC(C)c1nc(C(C)(C)C)no1 (centres unmarked)	-6.423%	23.78%
c1ncn(CC2CN(CC3CCCCC3)CCO2)n1 (centres unmarked)	-6.536%	1.292%
NC(=O)CN1CCC2(CC1)CC(=O)c1ccc3ccccc3c1O2	-1.621%	10.16%
CCN1CCC2(C=C(C(=O)N(C)C)c3ccccc32)CC1.O=C(O)C(F)(F)F	0.2575%	-12.12%
O=S(=O)(Cc1cccc2cccnc12)NC(CO)c1ccco1 (centres unmarked)	-0.7912%	23.2%
COc1ccccc1NCc1cscn1.Cl	-1.65% & 9.358%	12.78%
O=C1CO[C@H](c2ccc(NS(=O)(=O)c3ccccc3)cc2)[C@@H](CO)N1	0.7017%	2.981% & 3.995%
CCN1CC2(CC1=O)CN(Cc1ccsc1)CCN(C(=O)C(C)C)C2.O=C(O)C(F)(F)F (centres unmarked)	-9.144%	-20.99%
O=C(O)c1ccnc(-c2ccnc(COc3cccc(F)c3)n2)c1	-32.27%	-21.23%
O=C(Nc1cccc(OCC(F)F)n1)c1ccncc1F	-6.058%	6.573%
CC(Cn1cncn1)NCc1nncn1C1CCCCC1 (centres unmarked)	6.715%	-11.45% & -7.811%
[H][C@]12CC[C@@]3(N=C(CC)N(C)C3=O)[C@@]1([H])CN(S(=O)(=O)CC(C)C)C2	-5.953%	4.374%
CCN1CCO[C@]2(CCC[C@H]2COCc2csc(C)n2)C1.O=C(O)C(F)(F)F.O=C(O)C(F)(F)F	-11.39%	3.611%
Cc1nc(C)c(CN2CCC(N(C)Cc3noc(C4CC4)n3)C2)s1 (centres unmarked)	-17.17%	-21.53%
c1ccn2cc(CN3CCCC(c4ccn[nH]4)C3)nc2c1 (centres unmarked)	-33.07%	13.47%
Cc1cc(-c2ccccc2C(=O)O)nc(C2CCCN(C)C2)n1 (centres unmarked)	7.127%	24.49%
CCS(=O)(=O)N1CCC2(CCN(Cc3ccc(C)o3)C2)C1 (centres unmarked)	-27.2% & -11.52%	-47.03%
Cc1cc(C)n(C2CCN(c3ncnc4c3CCC4)C2)n1 (centres unmarked)	3.31%	-41.29% & -3.176%
COc1ccc2c(c1)CC(C(=O)N(C)CCCc1cnn(C)c1)CO2 (centres unmarked)	-0.1125%	25.38%
Cc1ccnc(CC(C)N(C)c2cc(CN)nc(C)n2)c1 (centres unmarked)	-0.8754%	4.223%
CCc1nc(-c2noc3ccc(C(=O)NCCN(C)C)cc23)co1	-2.338%	-5.854%
O=C(NCCCc1nc(=O)[nH][nH]1)Nc1cccc(F)c1	11.6%	-19.45%
C1CC(NCc2nnc(C3CC3)o2)CN(Cc2noc(C3CC3)n2)C1 (centres unmarked)	2.934%	3.288%
CCn1c(C2CCCN(C(=O)c3ccc[nH]3)C2)nn(CCN(C)C)c1=O (centres unmarked)	0.2234% & -2.04%	7.554%
CCCc1ccc(C(=O)N2Cc3c(Cn4ccnc4)nn(C)c3C2)cc1.O=CO	4.373% & 8.706%	13.05%
Cc1cnc(N2CCC3(CC2)CN(c2ccsc2)C(=O)CO3)nc1.O=C(O)C(F)(F)F	-14.48%	-56.43% & -7.251%
NC(=O)CN1CCCC(c2ccnc(Nc3ncccn3)c2)C1 (centres unmarked)	-11.31% & -6.854%	-19.19%
O=C(O)C(F)(F)F.[H][C@@]12CCN(Cc3scnc3C)C[C@]1(c1nc(C)no1)CCO2	-14.59%	-27.57%
COc1cccc2c1ccn2CCNC(C)=O	-0.5652%	-3.715%
Cc1cc(OC(F)F)c(C(=O)N2CCC(CN(C)C)CC2)s1	27.91%	8.416% & -8.582%
COc1ccc(C(=O)N(C)Cc2ncc(C)c(OC)c2C)c(OC)c1	24.28%	32.38%
OCC1CCCN1c1cc(NCc2ccsc2)ncn1 (centres unmarked)	10.86%	21.7%

The last 3 entries again:

{"compound": "Cc1cc(OC(F)F)c(C(=O)N2CCC(CN(C)C)CC2)s1", "Mtb cholesterol medium": 27.91, "Mtb glucose medium": "8.416 & -8.582"}
{"compound": "COc1ccc(C(=O)N(C)Cc2ncc(C)c(OC)c2C)c(OC)c1", "Mtb cholesterol medium": 24.28, "Mtb glucose medium": 32.38}
{"compound": "OCC1CCCN1c1cc(NCc2ccsc2)ncn1", "stereo": "centres unmarked", "Mtb cholesterol medium": 10.86, "Mtb glucose medium": 21.7}

The values are deposited in ChEMBL (CHEMBL3988442, “University of Dundee, Small-Polar-MMV Screening Library” (2021)).